Results as given in patent US20220041697A1.
These are yes or no findings as the source states them, for the method shown. Some binding calls cover weakened binding; strength is not graded here.

The chains behind the UniProt entries cited, without tags or fusion partners. Where a name states a change or a piece, a line headed by the entry shows the natural chain unless it says otherwise. A line that says so, or that is headed by a name, gives the form on record, which may keep a tag or linker.
enriched human paired helical filament pathological tau protein (PHF) derived from human tauopathy brain (P10636, form named): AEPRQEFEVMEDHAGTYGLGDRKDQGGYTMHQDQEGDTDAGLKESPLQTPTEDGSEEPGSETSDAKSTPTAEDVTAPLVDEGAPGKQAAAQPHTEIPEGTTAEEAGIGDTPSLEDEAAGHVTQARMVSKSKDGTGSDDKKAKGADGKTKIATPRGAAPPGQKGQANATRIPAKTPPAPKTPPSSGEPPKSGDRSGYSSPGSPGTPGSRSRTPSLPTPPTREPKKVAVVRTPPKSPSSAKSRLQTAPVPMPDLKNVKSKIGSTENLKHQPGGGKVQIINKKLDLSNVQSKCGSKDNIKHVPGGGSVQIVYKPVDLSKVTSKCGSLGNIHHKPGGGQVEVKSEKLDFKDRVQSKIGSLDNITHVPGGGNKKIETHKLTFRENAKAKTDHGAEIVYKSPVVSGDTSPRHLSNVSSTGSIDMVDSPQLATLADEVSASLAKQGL

Assays:
[1] = target: pathological tau protein in human brain tissue (human) (UniProt P10636); experiment: immunohistochemistry on human brain tissue (FIG. 2A legend)
[2] = target: pathological tau protein in human brain tissue (human) (UniProt P10636); experiment: immunohistochemistry on fixed human tauopathy brain tissue (FIG. 2A)
[3] = target: enriched human paired helical filament pathological tau protein (PHF) derived from human tauopathy brain (human) (UniProt P10636); experiment: mixed primary JNPL3 mouse brain culture treated with human PHF (FIG. 3 legend)

Measured: binding

B1: Tau mAb 8B2D1 (antibody, V domains shown)
VH: EVQLQQSGPELVKPGASVKMSCKASGYTFTSYVIHWVKQKPGQGLEWIGYIYPYNDGTIYNEKFKGKATLTSDTSSSTVYMELISLTAEDSAVYWCVRERDNYGVYWGQGTTLTVSS
VL: DVLLTQTPLSLPVSLGDQASISCRSSQSIVHSNGNTYLEWYLQKPGQSPELLIYKVSNRFYGVPDRFSGSGSGTDFTLKISRVEAEDLGVYYCFQDSHIPYTFGGGTRLEIK
binds: all assays above
